Reference: the supplement of paper PMC12872613
Counter-ions that a name gives are not always drawn. The list shows a part of the results. Rule as the data show it: active = 0.7 or more and inactive = the rest. Single values are uncertain, as repeats are few or missing.

These compounds were tested on MiaPaCa-2 CLSA-25 (assay: cell death relative to DMSO vehicle (fraction); higher = more cytotoxic). Details: 5 µM; treatment time 48 h; medium cystine 25 µM.
For `C=CCc1ccc(O)c(-c2cc(CC=C)ccc2O)c1` [Magnolol], the cell death was inactive: 0.552. For `O=c1ccc2ccccc2o1` [Coumarin], the cell death was inactive: 0.385. For `C[C@H](CCC(=O)O)[C@H]1CC[C@H]2[C@@H]3C(=O)C[C@@H]4CC(=O)CC[C@]4(C)[C@H]3CC(=O)[C@]12C` [Sodium dehydrocholate], the cell death was inactive: 0.0391. `O=C(O)CNC(=O)c1nc(Cl)c2ccccc2c1O` was tested, and the cell death was inactive: 0.212. With `C[C@H](CCC(=O)O)[C@H]1CC[C@H]2[C@@H]3C[C@H](O)[C@@H]4C[C@H](O)CC[C@]4(C)[C@H]3CC[C@]12C` [Hyodeoxycholic acid] the cell death was inactive: 0.0455. `CCOc1cc(NC(C)=O)ccc1C(=O)OC` [Ethopabate] was tested, and the cell death was inactive: 0.135. In the case of `C[C@]12C=CC(=O)C=C1CC[C@@H]1[C@@H]2C(=O)C[C@@]2(C)[C@H]1CC[C@]2(O)C(=O)CO` [Prednisone], the cell death is reported as inactive: 0.367. For `COC(=O)N[C@H](C(=O)N[C@@H](Cc1ccccc1)[C@@H](O)CN(Cc1ccc(-c2ccccn2)cc1)NC(=O)[C@@H](NC(=O)OC)C(C)(C)C)C(C)(C)C` [Atazanavir sulfate], the cell death was inactive: 0.0313. For `C[C@@H]1O[C@@H](O[C@H]2[C@H](Oc3cc(O)c4c(c3)O[C@H](c3ccc(O)cc3)CC4=O)O[C@H](CO)[C@@H](O)[C@@H]2O)[C@H](O)[C@H](O)[C@H]1O` [Naringin], the cell death was inactive: 0.0201. With `Cc1cc(SCc2sc(-c3ccc(C(F)(F)F)cc3)nc2C)ccc1OCC(=O)O` the cell death was inactive: 0.574. For `OC[C@H](O)C(O)[C@@H](O)CO` [L-(-)-Arabitol], the cell death was inactive: 0.277. In the case of `OC[C@H]1O[C@@H](Oc2ccc(O)cc2)[C@H](O)[C@@H](O)[C@@H]1O` [Arbutin], the cell death is reported as inactive: 0.139. For `Cn1c(=O)c2nc[nH]c2n(C)c1=O` [Theophylline monohydrate], the cell death was inactive: 0.119. With `O=C(OC(C(F)(F)F)C(F)(F)F)N1CCC(C(O)(c2ccc3c(c2)OCO3)c2ccc3c(c2)OCO3)CC1` the cell death was inactive: 0.107. `O=C(Nc1ccc(O)cc1)c1ccccc1O` [Osalmid] was tested, and the cell death was inactive: 0.41. `c1cc(-c2cnn3cc(-c4ccc(OCCN5CCCCC5)cc4)cnc23)ccn1` [Dorsomorphin] was tested, and the cell death was inactive: 0.103. For `O=C(Nc1ccccc1)N1CCN(c2nc(-c3ccccc3)ns2)CC1`, the cell death was inactive: 0.269. In the case of `Cc1ccc(C)c(OCCCC(C)(C)C(=O)O)c1` [Gemfibrozil], the cell death is reported as active: 0.776. For `O=C1CCc2ccccc2C1` [Beta-Tetralone], the cell death was inactive: 0.451. `N#C[C@@H]1C[C@@H]2C[C@@H]2N1C(=O)[C@@H](N)C12CC3CC(CC(O)(C3)C1)C2` [Saxagliptin hydrate] was tested, and the cell death was inactive: 0.337. For `CCC(=O)OCC(=O)[C@@]1(OC(=O)CC)[C@@H](C)C[C@H]2[C@@H]3CCC4=CC(=O)C=C[C@]4(C)[C@@]3(Cl)[C@@H](O)C[C@@]21C` [Beclomethasone dipropionate], the cell death was inactive: 0.148. `COc1cc(Cc2cnc(N)nc2N)cc(OC)c1OC` [Trimethoprim] was tested, and the cell death was inactive: 0.131. `CCOC(=O)[C@H](CCc1ccccc1)N[C@H]1CCc2ccccc2N(CC(=O)O)C1=O` [Benazepril hydrochloride] was tested, and the cell death was inactive: 0.377. In the case of `C[C@]12C=CC(=O)N[C@@H]1CC[C@@H]1[C@@H]2CC[C@]2(C)[C@@H](C(=O)Nc3cc(C(F)(F)F)ccc3C(F)(F)F)CC[C@@H]12` [Dutasteride], the cell death is reported as inactive: 0.372. With `Cc1cc(C)c(S(=O)(=O)N(CCc2cccc(Br)c2)Cc2ccc(-c3cccc(S(C)(=O)=O)c3)cc2)c(C)c1` the cell death was inactive: 0.116. With `NNC(=O)c1ccncc1` [Isoniazid] the cell death was inactive: 0.0722. For `CC(C)(C)[C@]1(O)CC2OC(=O)CC23C(=O)OC2OC(=O)[C@H](O)C231` (stereo partly specified) [Bilobalide], the cell death was inactive: 0.0356. `CC(C)(C)c1ccc(S(=O)(=O)NCc2ccc(C(=O)Nc3cccnc3)cc2)cc1` was tested, and the cell death was active: 0.805. With `N#Cc1ccc([C@H]2CCc3cncn32)c(F)c1` [Osilodrostat] the cell death was inactive: 0.019. `CCOC(=O)c1ccc(C#Cc2ccc3c(c2)C(C)(C)CCS3)nc1` [Tazarotene] was tested, and the cell death was inactive: 0.0963. In the case of `O=C(/C=C/c1ccc(O)cc1)c1ccc(O)cc1O` [Isoliquiritigenin], the cell death is reported as inactive: 0.0182.
